We go through 117 substances from the supplement of paper PMC5949888.

Most values lie at the floor of the assay. Slopes are relative: functional sequences can read slightly below zero.

The subject of this series is Saccharomyces cerevisiae PS128 hsf1 delta, HSF1(1-493) fusion. The series is described as follows: growth estimate (transactivation domain function in HSF1 fusion, heat-shock survival) (a.u. (slope of normalised read count over time)); higher = stronger growth at 37°C, i.e. more transactivation activity. Particulars: library: random library.
Turning to KRSLAVGSTIFRGLRTKKLD, the growth estimate is less than -0.25.
To LQIGYFKQR belongs less than -0.25; to NVGLCHGF, less than -0.25.
For SVAGGSASRISCVASLYLGS the value was less than -0.25.
To HSREAFWPLG belongs less than -0.25; to EFVPYGVNPGRT, less than -0.25.
For KPSSGEELWVHMHASCRRPI, the growth estimate is less than -0.25.
To LNPSSDRHPFLCARTHSATV belongs less than -0.25; to RDDDVWEYQLISSGPNARSR, less than -0.25; to SGCVRPVIGSFMDNDYSTRL, less than -0.25.
To YQAM belongs less than -0.25; to SPCGVCSRDMTLRRLAR, less than -0.25.
To PEPWVVLLGTTLDSDSTSPK belongs less than -0.25; to GYPGLWGSCLVTLFTRTDRT, less than -0.25.
As to GAETCTRPPSPDCTVKLVDR, the growth estimate is less than -0.25.
To HCAVMNFQGTLVRVGEIAHP belongs less than -0.25; to SWPASMRVSRLRPDKTEFPG, less than -0.25.
For ADAG the value was less than -0.25; for VEAAAAE, less than -0.25; for HRRGYPFLVTSRDSQFSARK, less than -0.25.
Turning to YCSARSG, the growth estimate was less than -0.25.
Consider RPVVA, for which the growth estimate was less than -0.25.
As to WDRVAQADEVGHGLSSKLR, the growth estimate was less than -0.25.
To LSPKIPEHKSRRLTSIDGLI belongs less than -0.25; to SCHDPFAICSRSGY, less than -0.25; to PVPTGFLVFKSAHWAYDACR, less than -0.25.
For DSVDRCPSLWGTINLDRVHR the value was less than -0.25.
For TELCEVYQLVYIKAGLLRGA the value was less than -0.25.
As to LCSLK, the growth estimate was less than -0.25.
To SGGEKLLIGRSTRKLDVKQL belongs less than -0.25; to YYTGGHQAVYYATAIPG, less than -0.25.
To MKGGC belongs less than -0.25; to ECFAK, less than -0.25.
With IGAICDHVALSNFRGAHCMS, the growth estimate is less than -0.25.
GVVQRVICSGVSQERL: the growth estimate is less than -0.25.
For SGLSKSAAPIIGKQAEPSRL the value was less than -0.25; for CSDRR, less than -0.25.
Consider AIGTDRLCALAREVWLRAIE, for which the growth estimate was less than -0.25.
For the substance ESVWGYHGLTDWE, the growth estimate is less than -0.25.
To FWQ belongs less than -0.25; to ANYYS, less than -0.25; to GGITKNSVKSSIRVLS, less than -0.25.
To NALEPRLGPVGCGYNSVGHQ belongs less than -0.25; to DLIMGVCMYRQPEFNPSINI, less than -0.25; to GVQSRALG, less than -0.25.
For WDQGWGRD the value was less than -0.25; for TAPWARCRVGGLSVQPVLWG, less than -0.25.
ERFFKRTGMWSHGHWNGSGV: the growth estimate is less than -0.25.
For DGPY the value was less than -0.25; for VRSTRRGPKFA, less than -0.25; for RRGLPGVTRRKDWYKVADEA, less than -0.25.
For YSHSSY the value was less than -0.25; for ILRGV, less than -0.25; for RWSVFRLSRVNLSRRYESVD, less than -0.25.
Turning to DVYCTLRADHP, the growth estimate is less than -0.25.
Regarding RRSNASLAT, the growth estimate was less than -0.25.
To ECWL belongs less than -0.25; to AKGLGDIYSCSAYESLRRCL, less than -0.25; to NCILCRLPLR, less than -0.25.
Take KGECLITLFKS: the growth estimate is less than -0.25.
RGMRQARLDHPLFGRGMQSE: the growth estimate is less than -0.25.
Take LARCGEEGQ: the growth estimate is 0.492.
To MALRGTTYV belongs less than -0.25; to VGAFRYNE, less than -0.25; to LPACCVQYTGGLY, less than -0.25.
To PIKAIPSRLLLVLDQSLSFH belongs less than -0.25; to QKRVMPPSGILVDPI, less than -0.25.
For EKGADSEFKQNNKGTGAA the value was less than -0.25.
Turning to LWGNLQLRTATSVWGPKGSV, the growth estimate is less than -0.25.
As to HISLVPPLVPSG, the growth estimate is less than -0.25.
For QVSASVDL the value was less than -0.25; for ALVCWPMAMTLDAFFLS, less than -0.25.
To KDNG belongs less than -0.25; to DPGTISGHTASLLSRKYLS, less than -0.25; to INPVY, less than -0.25.
For WNFPDRCYNPPKPI, the growth estimate is less than -0.25.
To RTASGLC belongs less than -0.25; to RGERLAGTWYFI, -0.201; to DRSVKELNDLYPIR, less than -0.25.
For SHPRCTVKSPEFLCRSHNRP the value was less than -0.25; for TSREHS, less than -0.25.
With CRTEKRVEVAHHSTWILEIY, the growth estimate is less than -0.25.
For SCTLGSAG the value was less than -0.25; for PSSA, less than -0.25.
Turning to LHFAQGFQVDCVEGDLNVRA, the growth estimate was less than -0.25.
For LDHV the value was less than -0.25; for SIAW, less than -0.25.
Turning to ISIHVESRCDRILSQAIFTS, the growth estimate was less than -0.25.
For WSRGSGPAAIVLHGLERSHL the value was less than -0.25.
For the substance WCSEGVFGG, the growth estimate is less than -0.25.
Regarding CLESCSCGTMGGKITLLSGR, the growth estimate is less than -0.25.
For KYKIPPLSASISDSMR the value was less than -0.25; for LLDVVANVRQ, less than -0.25.
To LGPAANRRQHLGSKENKIKA belongs -0.246; to PVGRLRSFT, -0.243; to DMLIG, less than -0.25.
For HIYSDKQNRGDRG the value was less than -0.25; for DHKRGAATLCTRSLHQYSGL, less than -0.25.
As for RHQADLRFRTQGHGGHVRGT, the growth estimate was -0.248.
For SKGWSTVPIRTCRTRKLGLA the value was less than -0.25; for LYMRLNSQCKPGAS, less than -0.25; for SIRG, less than -0.25.
Take FQVMKFIHFLSYVVSTQMYR: the growth estimate is less than -0.25.
With YATTGVG, the growth estimate was less than -0.25.
As to FTLFDRTGIPSEKTPIVLPD, the growth estimate is less than -0.25.
To PGVPATRLRHSPVPLSRGVR belongs less than -0.25.
With KCRHFAACSLSVMKFTKILG, the growth estimate was less than -0.25.
To AHSIHESNAASNALASLLVY belongs less than -0.25; to ADGEQYISDVSITIAACYRC, less than -0.25; to ITSRTSGRHSNISST, less than -0.25.
AVELVRVHPPRGLAYIGVSA: the growth estimate is less than -0.25.
To YVGLVDLPCNLAPSA belongs -0.231.
For IGLCAVTIAGIWVEH the value was less than -0.25; for QSIKGHP, less than -0.25; for NGKFSLPALLGG, less than -0.25.
For GKFLFGIWW, the growth estimate was less than -0.25.
To VSLKL belongs less than -0.25.
